Laboratory results taken from PubChem BioAssay AID2685 (National Center for Advancing Translational Sciences (NCATS), 2010).
The other results are listed elsewhere or left out. The main result of the screen is listed elsewhere. These columns were measured beside it and carry no call. Compounds called inactive in the main read-out are mostly missing here. Potencies come from curve fits of mixed quality, noted in brackets.

Experiment: qHTS Assay for Lipid Storage Modulators in Drosophila S3 Cells;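 for cell number change: cells counted by Cell Tracker Red CMTPX staining in the red channel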
Conditions: BODIPY lipid droplet fluorescence, 18-24 h; for cell number change: measured here: cell count max response, cells fed with added oleic acid
Procedure, shortened: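 Laser-scanning cytometry quantifies lipid droplet accumulation (500–530 nm total intensity; droplet/cell object ratio) in oleic acid-fed (400 uM added) Drosophila S3 cells treated with a concentration series. 20 uM Triacsin C defined 100% inhibition.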

[1] = measured here: lipid fluorescence (Fed channel) AC50, cells fed with added oleic acid
[2] = measured here: cell number channel AC50, cells fed with added oleic acid

COc1cccc(C(=O)C[n+]2ccccc2/C=N/O)c1
cell number change: 25.1% | AC50 [1]: 9.2 µM [rising, partial curve]

CCS(=O)(=O)c1ccc2c(c1)N(S(=O)(=O)c1ccc(Cl)cc1)CC(C(=O)O)O2 (stereo not drawn)
cell number change: -45.4%

c1ccn2cc(CSC3=NCCS3)nc2c1
AC50 [2]: 6.51 µM [rising, single point] | AC50 [1]: 6.51 µM [rising, single point]

Cc1cccc(NC(=O)NCCN2CCCCC2)c1
cell number change: 3.7%

Nc1cccc(C(=O)N/N=C/c2ccsc2)c1
cell number change: 15.2% | AC50 [1]: 0.461 µM [falling, single point]

CCCCn1c(N)c(N(CC(C)C)C(=O)c2ccc(OCc3c(C)noc3C)cc2)c(=O)[nH]c1=O
cell number change: 0.321% | AC50 [1]: 2.31 µM [rising, full curve]

CCOc1ccc(NC(=O)CC(c2ccccc2)c2ccc(F)cc2)cc1 (stereo not drawn)
cell number change: 11.1%

COc1cccc(NC(=O)CN2C(=O)CSc3ccc(S(=O)(=O)N4CCC(C)CC4)cc32)c1
cell number change: 6.1% | AC50 [1]: 0.13 µM [falling, full curve, poor fit]

Cc1cc(CNC(=O)[C@H]2C[C@@H]2[C@H](NP(=O)(c2ccccc2)c2ccccc2)c2ccccc2)nn1C
cell number change: 0.533% | AC50 [1]: 14.6 µM [rising, single point]

COc1cc(NC(=O)Cn2c([N+](=O)[O-])cnc2C)c(OC)cc1Cl
cell number change: -11.3%

S=C(Nc1cccc(Cl)c1)N(CCCN1CCCC1)Cc1cccn1Cc1ccc(Cl)cc1
cell number change: -69.8% | AC50 [2]: 29.1 µM [falling, single point] | AC50 [1]: 29.1 µM [falling, single point]

CCOC(=O)c1c(C)[nH]c(C(=O)NCc2ccco2)c1C
cell number change: 22.1% | AC50 [2]: 0.0259 µM [rising, full curve, poor fit] | AC50 [1]: 2.31 µM [rising, partial curve, poor fit]

O=C(/C=C/c1ccc(S(=O)(=O)N2CCOCC2)cc1)N(CCO)Cc1ccccc1
cell number change: 9.59% | AC50 [2]: 4.11 µM [falling, single point] | AC50 [1]: 4.11 µM [falling, single point]

CC(Sc1nc(O)c(-c2ccccc2)c(=O)[nH]1)C(=O)Nc1ccc(Cl)cc1 (stereo not drawn)
cell number change: 22% | AC50 [1]: 0.00461 µM [rising, full curve, poor fit]

c1ccc(-c2c(-c3ccccc3)n(Cc3ccco3)c3ncnc(NCCCn4ccnc4)c23)cc1
cell number change: -87.6%

COc1ccc(C)cc1NC(=O)CSc1nnc2ccc(-c3ccccn3)nn12
cell number change: -17.6% | AC50 [1]: 18.4 µM [falling, partial curve, poor fit]

COc1ccc(NCC(=O)N/N=C/C=C/c2ccccc2[N+](=O)[O-])cc1
cell number change: 14% | AC50 [2]: 0.82 µM [rising, full curve, poor fit] | AC50 [1]: 0.517 µM [rising, full curve]

Cn1nc(C(=O)OCC(=O)c2ccc[nH]2)c2ccccc2c1=O
cell number change: -108% | AC50 [2]: 18.4 µM [falling, partial curve] | AC50 [1]: 29.1 µM [falling, single point]

Cn1nnnc1SCC(=O)N1CCc2ccccc21
cell number change: -24% | AC50 [1]: 7.31 µM [falling, partial curve]

COC(=O)C1=C(C)OC(N)=C(C#N)C1c1ccccc1 (stereo not drawn)
cell number change: 5.68% | AC50 [1]: 0.0206 µM [rising, full curve, poor fit]

O/N=C1/CCc2cccc3cccc1c23
cell number change: 8.12%

CCC(=O)Nc1ccc(Cl)c(NC(=O)c2ccc(Br)o2)c1
cell number change: -5.87% | AC50 [1]: 0.013 µM [rising, full curve, poor fit]

COc1ccc(NC(=O)CCn2c(=S)[nH]c3ccccc3c2=O)cc1
cell number change: 85.8% | AC50 [2]: 25.9 µM [rising, partial curve, poor fit]

COc1ccccc1NC(=O)Oc1ccc(C(C)=O)cc1
cell number change: 2.53%

CC1(C)CC(=O)C2=C(C1)OC1=C(C(=O)CC(C)(C)C1)C2(C)C
cell number change: -65.8% | AC50 [2]: 2.31 µM [rising, partial curve, poor fit] | AC50 [1]: 29.1 µM [falling, single point]

C=CCc1ccc(OCCCN2CCCC(C)C2)c(OC)c1 (stereo not drawn)
cell number change: 22.8% | AC50 [1]: 29.1 µM [rising, single point]

CC(=O)NCc1ccc(C(=O)CN2C(=O)NC3(CCCCC3C)C2=O)s1 (stereo not drawn)
AC50 [1]: 5.17 µM [rising, partial curve, poor fit]

COc1ccc(CCNC(=O)CN2C(=O)NC(C)(c3ccc([N+](=O)[O-])cc3)C2=O)cc1 (stereo not drawn)
cell number change: 21.3% | AC50 [2]: 1.46 µM [rising, partial curve]

COc1ccc(CNC(=O)C2CCN(S(=O)(=O)c3ccc4c(c3)NC(=O)CO4)CC2)cc1
cell number change: 20.1%

CCNCCNC(=O)c1c(O)c2cccc3c2n(c1=O)CCC3
cell number change: 1.06% | AC50 [1]: 0.00461 µM [rising, full curve, poor fit]

Cc1ccnc(NC(=O)c2cccc([N+](=O)[O-])c2C)c1
cell number change: -14.4%

COc1cccc(N(CC(=O)NC2CCCC2)C(=O)CCC(=O)Nc2nccs2)c1
cell number change: 55.6% | AC50 [2]: 29.1 µM [rising, single point]

CCOC(=O)CSc1nc(C)cc(C)n1
AC50 [1]: 20.6 µM [falling, partial curve]

Nc1ccc(S(=O)(=O)c2ccc(Cl)cc2)cc1
cell number change: -47.6% | AC50 [2]: 29.1 µM [falling, single point] | AC50 [1]: 29.1 µM [falling, single point]

COc1cc(OC)c(C(=O)Oc2ccc3c(c2)OCO3)cc1OC
cell number change: 39.2% | AC50 [2]: 0.164 µM [rising, full curve] | AC50 [1]: 0.00517 µM [rising, full curve, poor fit]

COc1ccc(C(=O)n2ncc(C#N)c2N)cc1
cell number change: 9.77% | AC50 [1]: 23.1 µM [falling, partial curve, poor fit]

COCc1c(C(=O)N2CCN(Cc3nc4ccccc4s3)CC2)oc2ccccc12
cell number change: -0.535% | AC50 [1]: 2.06 µM [falling, partial curve, poor fit]

Cc1cc(C)c(C#N)c(N2CCN(c3ccccc3)CC2)n1
cell number change: 14.5% | AC50 [1]: 6.51 µM [rising, partial curve, poor fit]
